According to article PMC4829432, “T-box3 is a ciliary protein and regulates stability of the Gli3 transcription factor to control digit number” (eLife, 2016):
Like-named read-outs stand apart in the source and are kept apart here. No constants are given. Whether binding was seen depends on the method and setting. Binding seen in cells or lysates may run through a third protein. Some binding calls cover weakened binding; strength is not graded here. Sequences can lack the tags named with a protein.

Protein sequences, listed by entry. Tags and fused reporters are not part of them.
UniProt Q61602: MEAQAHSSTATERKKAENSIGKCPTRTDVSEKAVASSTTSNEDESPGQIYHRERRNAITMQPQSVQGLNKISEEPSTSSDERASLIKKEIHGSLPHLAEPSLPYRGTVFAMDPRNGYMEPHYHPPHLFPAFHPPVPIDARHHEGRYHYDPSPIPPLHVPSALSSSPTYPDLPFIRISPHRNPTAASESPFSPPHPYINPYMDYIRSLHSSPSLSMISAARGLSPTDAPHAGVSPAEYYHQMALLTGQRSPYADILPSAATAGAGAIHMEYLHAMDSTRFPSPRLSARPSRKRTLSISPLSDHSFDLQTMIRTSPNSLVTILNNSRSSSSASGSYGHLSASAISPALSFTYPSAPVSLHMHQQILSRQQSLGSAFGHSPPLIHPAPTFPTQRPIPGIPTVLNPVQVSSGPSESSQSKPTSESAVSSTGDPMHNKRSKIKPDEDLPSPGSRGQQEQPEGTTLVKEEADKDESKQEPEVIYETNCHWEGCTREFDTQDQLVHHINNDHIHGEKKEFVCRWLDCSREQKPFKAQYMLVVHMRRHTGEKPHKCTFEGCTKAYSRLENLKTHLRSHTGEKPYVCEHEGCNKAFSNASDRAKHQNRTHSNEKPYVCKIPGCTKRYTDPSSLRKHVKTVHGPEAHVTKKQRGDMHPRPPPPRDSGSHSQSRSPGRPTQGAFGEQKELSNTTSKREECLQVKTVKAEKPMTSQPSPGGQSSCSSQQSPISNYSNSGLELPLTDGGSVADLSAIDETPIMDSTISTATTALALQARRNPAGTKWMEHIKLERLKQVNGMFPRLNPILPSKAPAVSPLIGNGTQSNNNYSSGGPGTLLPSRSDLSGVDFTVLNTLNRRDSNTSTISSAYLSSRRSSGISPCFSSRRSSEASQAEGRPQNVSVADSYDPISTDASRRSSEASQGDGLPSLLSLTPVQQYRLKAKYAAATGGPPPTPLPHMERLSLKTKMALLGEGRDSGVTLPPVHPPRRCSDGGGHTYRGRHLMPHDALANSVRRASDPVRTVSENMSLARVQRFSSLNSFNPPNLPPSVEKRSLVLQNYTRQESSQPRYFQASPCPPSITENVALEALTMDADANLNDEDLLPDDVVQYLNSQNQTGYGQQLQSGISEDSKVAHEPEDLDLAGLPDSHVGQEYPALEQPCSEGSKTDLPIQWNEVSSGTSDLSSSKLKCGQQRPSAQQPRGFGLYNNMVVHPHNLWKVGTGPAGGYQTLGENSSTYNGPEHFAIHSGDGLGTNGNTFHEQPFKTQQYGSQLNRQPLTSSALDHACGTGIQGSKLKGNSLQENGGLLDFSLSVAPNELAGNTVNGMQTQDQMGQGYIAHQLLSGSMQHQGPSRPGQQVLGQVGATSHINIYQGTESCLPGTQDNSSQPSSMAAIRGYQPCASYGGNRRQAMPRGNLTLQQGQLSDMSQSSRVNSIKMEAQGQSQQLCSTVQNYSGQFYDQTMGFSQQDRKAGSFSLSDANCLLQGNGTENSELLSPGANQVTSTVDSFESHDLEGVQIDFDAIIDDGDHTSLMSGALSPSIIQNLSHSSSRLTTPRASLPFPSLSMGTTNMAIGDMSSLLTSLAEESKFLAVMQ

T1: Myc-tagged full length TBX3 (UniProt P70324)
T1 sequence: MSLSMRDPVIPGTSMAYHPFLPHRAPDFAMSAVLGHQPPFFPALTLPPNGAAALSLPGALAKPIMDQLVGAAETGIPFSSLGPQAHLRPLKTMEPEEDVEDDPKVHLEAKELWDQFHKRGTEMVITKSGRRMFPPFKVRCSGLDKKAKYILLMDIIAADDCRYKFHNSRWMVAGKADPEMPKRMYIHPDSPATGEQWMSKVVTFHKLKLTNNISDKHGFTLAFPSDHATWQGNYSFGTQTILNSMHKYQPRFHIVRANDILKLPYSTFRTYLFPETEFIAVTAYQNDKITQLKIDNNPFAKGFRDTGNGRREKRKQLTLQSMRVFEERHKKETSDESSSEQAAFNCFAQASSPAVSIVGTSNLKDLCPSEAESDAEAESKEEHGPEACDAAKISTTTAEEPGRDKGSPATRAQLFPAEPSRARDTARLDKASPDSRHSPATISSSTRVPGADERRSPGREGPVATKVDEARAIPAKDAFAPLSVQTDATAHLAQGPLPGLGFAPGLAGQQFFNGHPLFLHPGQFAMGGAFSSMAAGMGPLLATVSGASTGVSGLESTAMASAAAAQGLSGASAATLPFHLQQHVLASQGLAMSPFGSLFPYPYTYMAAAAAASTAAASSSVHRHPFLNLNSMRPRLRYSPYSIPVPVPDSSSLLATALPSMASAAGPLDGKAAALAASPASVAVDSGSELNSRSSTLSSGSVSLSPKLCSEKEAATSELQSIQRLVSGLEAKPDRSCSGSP


What was measured:
[1] = biological target: T1, Myc-tagged full length TBX3; assay: co-IP; Myc- and Flag-tagged proteins overexpressed together in HEK293 cells; lysates in Dignam buffer C; IP for Flag or Myc, immunoblot for Tbx3, Kif7 or Gli3
[2] = biological target: T1, Myc-tagged full length TBX3; assay: as above; remark: listed apart in the source

Row | binding [1] | binding [2] | Molecule
1 | no binding |  | Flag-tagged Gli3 (from UniProt Q61602 1-1583)
2 |  | binds | Flag-tagged Kif7 (protein, UniProt B7ZNG0 1-1348) MGLEAQRLPGAEEAPVRVALRVRPLLPKELLHGHQSCLRVEPERGRITLGRDRHFGFHVVLGEDTGQEAVYQACVQPLLEAFFEGFNATVFAYGQTGSGKTYTMGEASVASLHEDEQGIIPRAMAEAFKLIDENDLLDCLVHVSYLELYKEEFRDLLEVGTASRDIQLREDDRGNVVLCGVKEVDVEGLDEVLSLLEMGNAARHTGATHFNRLSSRSHTVFTVTLEQRGRTPSRLPRPAAGHLLVSKFHFVDLAGSERVLKTGSTGERLKESIQINSTLLALGNVISALGDPQRRGSHIPYRDSKITRILKDSLGGNAKTVMIACVSPSSSDFDETLNTLNYASRAQNIRNRATVNWHPEAERVPEEQAAGARGPPRHRSETRIIHRGRRVPCPAVGSAAVAAGLGAECARCRARTSAAYSLLRELQAEPGLPGAAARKVRDWLCAVEGERSTLSSASGPDSGIESAPAEDQAAQGTSGRKGDEGTQQLLTLQSQVARLEEENRDFLAALEDAMEQYKLQSDRLREQQEEMVELRLRLELAQPGWGAPGLLQGLPPGSFVPRPHTAPLGGAHTHMLGMMPSTCLPGEEVSSEQQVVSGKEVKAEVLAQADKLRSASSTTSEEEGEEEEEEEEEEEEPPRRTLYLRRNGISNWSQRAGLSPGSPPDRKGPEVCPEEPAAAIPAPQAVGSGKVPVQTRQAPAAMASEWRLAQAQQKIRELAINIRMKEELIGELVRTGKAAQALNRQHSQRIRELEQEAERVRAELCEGQRQLRELEGREPQDASERSRLQEFRKRVAAAQSQVQVLKEKKQATERLVSLSAQSETRLQELERNVQLMRRQQGQLQRRLREETEQKRRLETEMNKRQHRVKELELKHEQQQKILKIKTEEIAAFQRKRRSGSNGSVVSLEQQQKIEEQKKWLDQEMEKVLQQRRALEELGEELRKREVILAKKEALMQEKTGLESKRLRSSQALNEDIVRVSSRLEHLEKELSEKSGQLRQGSAQNQQQIRGEIDTLRQEKDSLLKQRLEIDSKLRQGSLLSPEEERTLFQLDEAIEALDAAIEYKNEAITCRQRVLRASASLLSQCEMNLMAKLSYLSSSETRALLCKYFDKVVTLREEQHQQQIAFSELEMQLEEQQRLVYWLEVALERQRLEMDRQLTLQQKEHEQNVQLLLQQGRDHLGEGLADSKRQYEARIHALEKELGRHMWINQELKQKLSAGSTAGQSQGCERRSLCLENRQCLGNEDGLHPAAPEPLWQSSLLEGVSRVWDESRDLVHAPLPLTWKRSSLCSEQGSSEESRVRETTEPPVGRVLPMGEVGLSWNFGPLPKPRWEPRRTSPGMIDVRKNPL
